From patent US7074785B2, “Δ1-pyrrolines used as pesticides” (Bayer Cropscience AG, priority 2001, dated 2006)
For some assays here: At least one read-out could not be matched to a standard name with certainty. Some results were stated once for a whole list of compounds, not compound by compound.

Assays:
[1] = tested on: army worm (Spodoptera frugiperda) caterpillars; assay: Spodoptera frugiperda test; format: in vivo; settings: 100 ppm, cabbage leaves dipped
[2] = tested on: caterpillars of the cabbage moth (Plutella xylostella, sensitive strain); assay: Plutella test, sensitive strain; format: in vivo; settings: 100 ppm, cabbage leaves dipped
Description: Plutella Test, Sensitive Strain
(§1) Solvent: 7 parts by weight of dimethylformamide

[3] = tested on: caterpillars of the cabbage moth (Plutella xylostella), resistant strain; assay: Plutella test, resistant strain; format: in vivo; settings: 100 ppm, cabbage leaves dipped
Description: Plutella Test, Resistant Strain
as §1

[4] = tested on: army worm (Spodoptera exigua) caterpillars; assay: Spodoptera exigua test; format: in vivo; settings: 100 ppm, cabbage leaves dipped
Description: as §1

[5] = tested on: Heliothis virescens caterpillars; assay: Heliothis virescens test; format: in vivo; settings: 100 ppm, soya bean shoots dipped
Description: as §1

[6] = tested on: larvae of the mustard beetle (Phaedon cochleariae); assay: Phaedon larvae test; settings: 100 ppm, cabbage leaves dipped
[7] = tested on: greenhouse red spider mite (Tetranychus urticae); assay: Tetranychus test (OP resistant/dip treatment); format: in vivo; settings: 100 ppm, bean plants dipped, Tetranychus urticae OP-resistant
Protocol: Tetranychus Test (OP Resistant/Dip Treatment)
as §1
After the desired period of time, the effect in % is determined.

Row | Compound | Kill rate in % after 7 d [1] | Kill rate in % after 7 d [7] | further results
1 | CCOC(=O)Nc1ccc(-c2ccc(C3CCC(c4c(F)cccc4F)=N3)cc2)cc1 (centres unmarked) [Compound 6] | 100% | – | Kill rate in % after 7 d ([2]; listed as compound 6): at least 95%; Kill rate in % after 7 d ([3]; listed as compound 6): at least 95%; Kill rate in % after 7 d ([4]; listed as compound 6): at least 95%; Kill rate in % after 7 d ([5]; listed as compound 6): at least 95%
2 | CC(C)OC(=O)Nc1ccc(-c2ccc(C3CCC(c4c(F)cccc4F)=N3)cc2)cc1 (centres unmarked) [Compound 7] | 100% | – | Kill rate in % after 7 d ([2]; listed as compound 7): at least 95%; Kill rate in % after 7 d ([3]; listed as compound 7): at least 95%; Kill rate in % after 7 d ([4]; listed as compound 7): at least 95%; Kill rate in % after 7 d ([5]; listed as compound 7): at least 95%
3 | CC(C)COC(=O)Nc1ccc(-c2ccc(C3CCC(c4c(F)cccc4F)=N3)cc2)cc1 (centres unmarked) [Compound 8] | – | – | Kill rate in % after 7 d ([2]; listed as compound 8): at least 95%; Kill rate in % after 7 d ([3]; listed as compound 8): at least 95%; Kill rate in % after 7 d ([4]; listed as compound 8): at least 95%; Kill rate in % after 7 d ([5]; listed as compound 8): at least 95%
4 | CCCCCOC(=O)Nc1ccc(-c2ccc(C3CCC(c4c(F)cccc4F)=N3)cc2)cc1 (centres unmarked) [Compound 18] | – | – | Kill rate in % after 7 d [6]: 100%
5 | CCCCCCOC(=O)Nc1ccc(-c2ccc(C3CCC(c4c(F)cccc4F)=N3)cc2)cc1 (centres unmarked) [Compound 19] | – | – | Kill rate in % after 7 d [6]: 100%
6 | CC(OC(=O)Nc1ccc(-c2ccc(C3CCC(c4c(F)cccc4F)=N3)cc2)cc1)c1ccccc1 (centres unmarked) [Compound 20] | 100% | – | Kill rate in % after 7 d [6]: 100%
7 | CC(C)CCOC(=O)Nc1ccc(-c2ccc(C3CCC(c4c(F)cccc4F)=N3)cc2)cc1 (centres unmarked) [Compound 21] | 100% | – | Kill rate in % after 7 d [6]: 100%
8 | CC(C)(C)COC(=O)Nc1ccc(-c2ccc(C3CCC(c4c(F)cccc4F)=N3)cc2)cc1 (centres unmarked) [Compound 23] | 100% | 95% | –
9 | CCC(CC)OC(=O)Nc1ccc(-c2ccc(C3CCC(c4c(F)cccc4F)=N3)cc2)cc1 (centres unmarked) [Compound 24] | – | 95% | –
10 | O=C(Nc1ccc(-c2ccc(C3CCC(c4c(F)cccc4F)=N3)cc2)cc1)OCCc1ccccc1 (centres unmarked) [Compound 25] | 100% | – | –
11 | O=C(Nc1ccc(-c2ccc(C3CCC(c4c(F)cccc4F)=N3)cc2)cc1)OCc1ccco1 (centres unmarked) [Compound 26] | 100% | 98% | –
12 | O=C(Nc1ccc(-c2ccc(C3CCC(c4c(F)cccc4F)=N3)cc2)cc1)OCc1cccs1 (centres unmarked) [Compound 27] | 100% | 98% | –
13 | CCCCC(CC)COCCOC(=O)Nc1ccc(-c2ccc(C3CCC(c4c(F)cccc4F)=N3)cc2)cc1 (centres unmarked) [Compound 28] | 100% | 95% | –
14 | CCCN(CCC)CCOC(=O)Nc1ccc(-c2ccc(C3CCC(c4c(F)cccc4F)=N3)cc2)cc1 (centres unmarked) [Compound 29] | – | 98% | –
15 | CN(C)CCOC(=O)Nc1ccc(-c2ccc(C3CCC(c4c(F)cccc4F)=N3)cc2)cc1 (centres unmarked) [Compound 30] | – | 95% | –
16 | CCOCCOC(=O)Nc1ccc(-c2ccc(C3CCC(c4c(F)cccc4F)=N3)cc2)cc1 (centres unmarked) [Compound 32] | – | 98% | –
17 | O=C(Nc1ccc(-c2ccc(C3CCC(c4c(F)cccc4F)=N3)cc2)cc1)OCCOCCOCCCC(F)(F)C(F)(F)F (centres unmarked) [Compound 34] | – | 90% | –
18 | COC(=O)N(C)c1ccc(-c2ccc(C3CCC(c4c(F)cccc4F)=N3)cc2)cc1 (centres unmarked) [Compound 35] | – | 98% | –
